± gives the standard deviation. Only a part is listed here, and it is no random draw. Many entries were measured with a wide error. Some of the results follow.
Columns and labels:
[1] = tested on: MILI (PIWIL2) piRISC loaded with L1MC piRNA (26 nt); experiment: pre-steady-state target cleavage rate (min^-1); higher = faster piRNA-guided slicing of the target; details: guide: L1MC piRNA 5'p-UAACUAAAUACUAUGCAAGCUGUAGG
How it was run: (§1)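 Using HEPES–potassium acetate buffer at 33 °C, 1 nM active affinity-purified piRISC with a single synthetic guide was mixed with 0.1 nM transcribed, DNA-blocked target RNA library for 0–8 or 0–960 min, with or without 500 nM GTSF1 partner protein. Uncleaved targets were sequenced and normalised to depth and to weakly complementary targets, and three trials were pooled with k3 capped at 0.0001 min^-1. A burst-and-steady-state fit gave the pre-steady-state cleavage rate.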

[2] = tested on: MIWI (PIWIL1) piRISC loaded with L1MC piRNA (30 nt); experiment: as above; details: guide: L1MC piRNA 5'p-UAACUAAAUACUAUGCAAGCUGUAGGUCCU
How it was run: as §1

[3] = tested on: EfPiwi piRISC loaded with L1MC piRNA (26 nt); experiment: pre-steady-state target cleavage rate (min^-1); guide: L1MC piRNA 5'p-UAACUAAAUACUAUGCAAGCUGUAGG; MIWI and MILI are mouse PIWI proteins and EfPiwi is from a freshwater sponge; tags in brackets are library labels; higher = faster piRNA-guided slicing of the target
How it was run: as §1

[4] = auxiliary factor: none (no GTSF1)
[5] = auxiliary factor: 500 nM Ephydatia muelleri Gtsf1
[6] = auxiliary factor: 500 nM mouse GTSF1
[7] = auxiliary factor: none (no Gtsf1)

| Sequence | pre-steady-state target cleavage rate [1, 4] | pre-steady-state target cleavage rate [2, 4] | pre-steady-state target cleavage rate [3, 5] | pre-steady-state target cleavage rate [1, 6] | pre-steady-state target cleavage rate [3, 7] | pre-steady-state target cleavage rate [2, 6] |
| --- | --- | --- | --- | --- | --- | --- |
| UCCUGGAUGUCCUUGCAUAGUAUUUUGAUA | 0.000785 ± 0.0084 | 0.00151 ± 0.0044 | 0.00168 ± 0.0035 |  |  |  |
| UCCUGGAUGUCGAUGCAUUCUAUUUAGUUA | 0.000456 ± 0.013 | 0.000478 ± 0.0088 | 0.000141 ± 0.026 |  |  |  |
| UCCUCCUACAGGAUGCAUAGUAUUUACAAA | 0.00071 ± 0.0078 | 0.00066 ± 0.0078 | 0.0028 ± 0.0027 |  |  |  |
| UCCUGGAUGUCGUUGCAUAGUUUAUAGUUA |  | 0.00064 ± 0.011 | 0.000676 ± 0.0095 | 0.0029 ± 0.0043 |  |  |
| UCCUGCUACAGCUUGCAAUCUAUUUAGAAA | 0.000253 ± 0.012 | 0.000781 ± 0.012 | 0.00024 ± 0.014 |  |  |  |
| UCCUCCUUGAGCUUGCAUAGUAUUUUCAAA | 0.000893 ± 0.0058 | 0.00166 ± 0.0026 | 0.00265 ± 0.0021 |  |  |  |
| UCCUGGAUGUGCUUCCAAAGUAUUUAGUUA | 0.00206 ± 0.0031 | 0.000848 ± 0.0061 | 0.00463 ± 0.0046 |  |  |  |
| UCCUGGAACAGCUUGCAUAGUAUAAUGUAA | 0.000743 ± 0.0073 | 0.00225 ± 0.0035 | 0.00116 ± 0.0032 |  |  |  |
| UCCUCCUACAGCUUGCAUAGUAAUUUCAAA | 0.00166 ± 0.0046 | 0.000729 ± 0.0096 | 0.00321 ± 0.0026 |  |  |  |
| UCCUGCUACAGCUUCGAUAGUAUUUACAAA | 0.00069 ± 0.0073 | 0.000524 ± 0.011 | 0.00214 ± 0.0025 |  |  |  |
| UCCUGCUACAGCUUGCAAAGUAUUUACAAA | 0.00107 ± 0.0053 | 0.00276 ± 0.0033 |  |  | 0.000291 ± 0.024 |  |
| UCCUGGAUGUCGUAGCAUAGUAAUUAGUUA | 0.00186 ± 0.0035 | 0.000855 ± 0.0088 | 0.000331 ± 0.012 |  |  |  |
| UCCUCCUACACGUUGCAUAGUAUUUACAAA | 0.00122 ± 0.0045 | 0.00124 ± 0.0037 | 0.00297 ± 0.0045 |  |  |  |
| UCCUGGAUGUGCAAGCAUAGUAUUUAGUAA | 0.00263 ± 0.0029 | 0.00129 ± 0.0077 | 0.00351 ± 0.0051 |  |  |  |
| UCCUCCUACAGCUUGCGAUAGUAUUUAGUUA | 0.000327 ± 0.0086 | 0.00105 ± 0.0058 | 0.00839 ± 0.0023 |  |  |  |
| UCCUGGAUGUCCUUGCAUUGUAUUUAGAUA | 0.00143 ± 0.0046 | 0.000912 ± 0.0068 | 0.00121 ± 0.0044 |  |  |  |
| UCCUGGAUCAGCUUGCAUAGUAUAAACAAA | 0.000649 ± 0.01 | 0.00128 ± 0.004 | 0.000805 ± 0.0045 |  |  |  |
| UCCUGGAACAGCUUGCAUAGAUAAAUCAAA [g11:g23:cont:t1A] | 0.00048 ± 0.012 | 0.000677 ± 0.0089 |  |  | 0.000549 ± 0.013 |  |
| UCCUGGAUCAGCUUGCAUAGAUAUUAGUUA | 0.00158 ± 0.0038 | 0.000945 ± 0.0071 |  |  | 0.000338 ± 0.017 |  |
| UCCUGGAUGAGCUUGCAUAGUAUUUUCAUA | 0.000636 ± 0.01 | 0.00304 ± 0.0036 | 0.00308 ± 0.0031 |  |  |  |
| UCCUGGUACAGGUUCCAUAGUAUUUAGUUA | 0.00218 ± 0.0049 | 0.000802 ± 0.0097 | 0.000681 ± 0.0058 |  |  |  |
| UCCUGGAUGUCCUUGCAUGAGUAUUUAGUUA | 0.00137 ± 0.0068 | 0.000724 ± 0.0087 | 0.000446 ± 0.008 |  |  |  |
| UCCUGGUACAGCUUGCAUACUAUUUACAAA | 0.00193 ± 0.0045 | 0.00182 ± 0.0044 | 0.000922 ± 0.0046 |  |  |  |
| UCCUGGAUGAGCUUGCAUAGUAUUAUGUAA | 0.000663 ± 0.0072 | 0.00181 ± 0.0034 | 0.000677 ± 0.0063 |  |  |  |
| UCCUCCUACUGCUUGCAUAGUAUUUUCAAA | 0.00108 ± 0.0041 | 0.00186 ± 0.0022 | 0.00274 ± 0.0026 |  |  |  |

| Sequence | pre-steady-state target cleavage rate [1, 4] | pre-steady-state target cleavage rate [2, 4] | pre-steady-state target cleavage rate [3, 5] | pre-steady-state target cleavage rate [1, 6] | pre-steady-state target cleavage rate [3, 7] | pre-steady-state target cleavage rate [2, 6] |
| --- | --- | --- | --- | --- | --- | --- |
| UCCUCCUACAGCUACGAUAGUAUUUACAAA | 0.000135 ± 0.02 | 0.000499 ± 0.013 | 0.000304 ± 0.0091 |  |  |  |
| UCCUGGAUGUCGAUGCAUAGUUAAUAGUUA |  | 0.00129 ± 0.0049 | 0.000155 ± 0.018 | 0.00324 ± 0.0043 |  |  |
| UCCUGGAUGUCGAACCAUAGUAUUAGUUA | < 0.0001 | 0.000433 ± 0.01 | 0.000118 ± 0.035 |  |  |  |
| UCCUGGAUGUCGAAGCAUAGUAAUUAGAUA | 0.000202 ± 0.023 | 0.00018 ± 0.015 | 0.00126 ± 0.0069 |  |  |  |
| UCCUGGAUCAGCUUCCAUAGUAUUUAGAUA | 0.000444 ± 0.0098 | 0.000734 ± 0.011 | 0.00231 ± 0.0018 |  |  |  |
| UCCUGGAUGUCGAACGAUAGUCAUUUAGUUA | 0.000112 ± 0.046 | 0.000764 ± 0.0063 | < 0.0001 |  |  |  |
| UCCUGGAUGUCGUUGCAUAGAAUAUAGUUA | 0.00134 ± 0.0046 | 0.000624 ± 0.011 | 0.000799 ± 0.0073 |  |  |  |
| UCCUGCUACUCGUUGCAUAGUAUUUACAAA | 0.00137 ± 0.0033 | 0.00129 ± 0.0047 | 0.00087 ± 0.0062 |  |  |  |
| UCCUGGAUCAGCUUGCAUAGUAAAUAGUAA | 0.00261 ± 0.0027 | 0.00271 ± 0.0031 | 0.0018 ± 0.0021 |  |  |  |
| UCCUCCUACAGCUUGCAUACAUUUUACAAA | 0.000562 ± 0.01 | 0.000806 ± 0.0094 | 0.0011 ± 0.0072 |  |  |  |
| UCCUCCUACAGCAUGCAUAGUAUUUAGAAA | 0.00191 ± 0.0029 | 0.002 ± 0.0023 | 0.00473 ± 0.002 |  |  |  |
| UCCUGGAUGUGCUAGCAUAGUAUUUAGAUA | 0.00104 ± 0.0065 | 0.00316 ± 0.0038 | 0.00239 ± 0.0025 |  |  |  |
| UCCUGGAUCAGCUUGGUAAGUAUUUUCAAA | 0.000719 ± 0.0063 |  | 0.000295 ± 0.011 |  |  | 0.00081 ± 0.013 |
| UCCUGGAUGUCGAUGCAUAGUAUUUUCUUA | 0.000744 ± 0.0084 | 0.000688 ± 0.0083 | 0.000256 ± 0.012 |  |  |  |
| UCCUCCUACAGCUUGCAUACAUAAAUCAAA [g12:g26:cont:t1A] | 0.000679 ± 0.007 | 0.000284 ± 0.011 | 0.000545 ± 0.0097 |  |  |  |
| UCCUGGAUGUCGAUGCAAAGUAUUUAGUAA |  | 0.000817 ± 0.01 | 0.00117 ± 0.0051 | 0.00334 ± 0.0047 |  |  |
| UCCUCCUACAGCUUGCAUUCUAUUUAGAAA | 0.000667 ± 0.0068 | 0.000985 ± 0.0053 | 0.00125 ± 0.0043 |  |  |  |
| UCCUGGAUGUCCUUGGAUAGUAAUUAGUUA |  | 0.000879 ± 0.0081 | 0.000913 ± 0.0074 | 0.411 ± 0.1 |  |  |
| UCCUGGAACACCUUCCAUAGUAUUUAGUUA | 0.00141 ± 0.0051 | 0.000765 ± 0.0083 | 0.00291 ± 0.0032 |  |  |  |
| UCCUCCUAGUCCUUGCAUAGUAUUUACAAA | 0.000703 ± 0.0063 | 0.00122 ± 0.0034 | 0.00284 ± 0.004 |  |  |  |
| UCCUGGAACAGCUUGCAUAGAUUUAGUUA | 0.001 ± 0.006 | 0.00139 ± 0.0059 | 0.00187 ± 0.0026 |  |  |  |
| UCCUGGUACAGCUUGCACUAGUAUUUAGUUA | 0.00202 ± 0.0043 | 0.00141 ± 0.0057 | 0.00323 ± 0.0029 |  |  |  |
| UCCUGGAUCAGCUUCGUUAGUAUUUAGAAA | 0.000245 ± 0.023 | 0.000746 ± 0.0062 | 0.00104 ± 0.0077 |  |  |  |
| UCCUGGAUGUCGAAGCAUAAGUAUUUAGUUA | 0.000404 ± 0.011 | 0.000193 ± 0.016 | 0.000405 ± 0.0077 |  |  |  |
| UCCUGGAUGUCGAACCUAUAGUAUUUAGUUA | 0.00192 ± 0.0032 |  | 0.000361 ± 0.011 |  |  | 0.000152 ± 0.018 |

Random excerpt: 2 records from the list, in no set order.

| Sequence | pre-steady-state target cleavage rate [1, 4] | pre-steady-state target cleavage rate [2, 4] | pre-steady-state target cleavage rate [3, 5] | pre-steady-state target cleavage rate [1, 6] | pre-steady-state target cleavage rate [3, 7] | pre-steady-state target cleavage rate [2, 6] |
| --- | --- | --- | --- | --- | --- | --- |
| UCCUCCUACAGCUUGCAUACAUUUUACAAA | 0.000562 ± 0.01 | 0.000806 ± 0.0094 | 0.0011 ± 0.0072 |  |  |  |
| UCCUCCUACAGCUUGCAUACAUAAAUCAAA [g12:g26:cont:t1A] | 0.000679 ± 0.007 | 0.000284 ± 0.011 | 0.000545 ± 0.0097 |  |  |  |

Source: the supplement of paper PMC10338343
